Data source: PubChem BioAssay AID1259405 (NCATS, 2018)

Assay: 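Mouse-designed siRNAs used to find CHO productivity engineering targets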 (primary screen)
Cells: Chinese hamster CHO-K1 ovary cells with stable secreted eGFP expression
Reagent: single siRNA against mouse genes, 0.8 pmol siRNA per well (2 µl of 400 nM stock)
Timing: 3 days
Read-out: 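Per-well intracellular GFP measured by laser scanning cytometry, plus viability from ATP luminescence, each relative to plate median of non-targeting control wells, in %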
Direction: GFP, % of control: higher = more GFP per well, higher productivity; viability (ATP), % of control: higher = more viable cells (more ATP)
Active means: 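Called active when intracellular GFP, relative to negative control, is at or above 120%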
This is one part, drawn at random, of about 50,000 reagents tested. In the full data, about 4,000 (8%) got an active call. 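Mouse siRNA library applied to hamster cells; one well for each siRNA.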

{"gene knocked down": "Zfp277 (zinc finger protein 277)", "PubChem SID": "SID363556678", "GFP, % of control": 107, "viability (ATP), % of control": 62.9, "call": "inactive"}
{"gene knocked down": "Zfp277 (zinc finger protein 277)", "PubChem SID": "SID363563582", "GFP, % of control": 69.7, "viability (ATP), % of control": 60.6, "call": "inactive"}
{"gene knocked down": "Zfp277 (zinc finger protein 277)", "PubChem SID": "SID363587128", "GFP, % of control": 78.5, "viability (ATP), % of control": 93.7, "call": "inactive"}
{"gene knocked down": "1700123K08Rik (RIKEN cDNA 1700123K08 gene)", "PubChem SID": "SID363545545", "GFP, % of control": 25.6, "viability (ATP), % of control": 47.3, "call": "inactive"}
{"gene knocked down": "1700123K08Rik (RIKEN cDNA 1700123K08 gene)", "PubChem SID": "SID363549058", "GFP, % of control": 74, "viability (ATP), % of control": 80.8, "call": "inactive"}
{"gene knocked down": "1700123K08Rik (RIKEN cDNA 1700123K08 gene)", "PubChem SID": "SID363562864", "GFP, % of control": 65.7, "viability (ATP), % of control": 76.5, "call": "inactive"}
{"gene knocked down": "Lrrtm3 (leucine rich repeat transmembrane neuronal 3)", "PubChem SID": "SID363544380", "GFP, % of control": 61.7, "viability (ATP), % of control": 48, "call": "inactive"}
{"gene knocked down": "Lrrtm3 (leucine rich repeat transmembrane neuronal 3)", "PubChem SID": "SID363550708", "GFP, % of control": 73.4, "viability (ATP), % of control": 75, "call": "inactive"}
{"gene knocked down": "Lrrtm3 (leucine rich repeat transmembrane neuronal 3)", "PubChem SID": "SID363557257", "GFP, % of control": 76.1, "viability (ATP), % of control": 102, "call": "inactive"}
{"gene knocked down": "Zdhhc2 (zinc finger, DHHC domain containing 2)", "PubChem SID": "SID363556627", "GFP, % of control": 74.3, "viability (ATP), % of control": 62.7, "call": "inactive"}
{"gene knocked down": "Zdhhc2 (zinc finger, DHHC domain containing 2)", "PubChem SID": "SID363563531", "GFP, % of control": 62.8, "viability (ATP), % of control": 70.3, "call": "inactive"}
{"gene knocked down": "Zdhhc2 (zinc finger, DHHC domain containing 2)", "PubChem SID": "SID363587077", "GFP, % of control": 44.5, "viability (ATP), % of control": 70, "call": "inactive"}
{"gene knocked down": "Or4c110 (olfactory receptor family 4 subfamily C member 110)", "PubChem SID": "SID363554119", "GFP, % of control": 83.9, "viability (ATP), % of control": 75, "call": "inactive"}
{"gene knocked down": "Or4c110 (olfactory receptor family 4 subfamily C member 110)", "PubChem SID": "SID363567566", "GFP, % of control": 97.5, "viability (ATP), % of control": 51, "call": "inactive"}
{"gene knocked down": "Or4c110 (olfactory receptor family 4 subfamily C member 110)", "PubChem SID": "SID363584923", "GFP, % of control": 65.3, "viability (ATP), % of control": 105, "call": "inactive"}
{"gene knocked down": "Ncf2 (neutrophil cytosolic factor 2)", "PubChem SID": "SID363568689", "GFP, % of control": 84.2, "viability (ATP), % of control": 86.8, "call": "inactive"}
{"gene knocked down": "Ncf2 (neutrophil cytosolic factor 2)", "PubChem SID": "SID363576081", "GFP, % of control": 40.6, "viability (ATP), % of control": 38.6, "call": "inactive"}
{"gene knocked down": "Ncf2 (neutrophil cytosolic factor 2)", "PubChem SID": "SID363578897", "GFP, % of control": 76, "viability (ATP), % of control": 69.1, "call": "inactive"}

A few values from above.
Zdhhc2 (zinc finger, DHHC domain containing 2) [SID363587077], viability (ATP), % of control = 70
Value for 1700123K08Rik (RIKEN cDNA 1700123K08 gene) [SID363549058] under “GFP, % of control”: 74
Entry for Lrrtm3 (leucine rich repeat transmembrane neuronal 3) [SID363557257] in “GFP, % of control”: 76.1
